We go through 40 molecules from the supplement of paper PMC5407854, “Inhibitor of ppGalNAc-T3-mediated O-glycosylation blocks cancer cell invasiveness and lowers FGF23 levels” (eLife, 2017).

The other results are listed elsewhere or left out. Most entries show no effect beyond the scatter of the controls.

The test system of the assay is ppGalNAc-T2 sensor. Kind of assay: T2 sensor activation Q score (MG/GFP ratio z-score vs DMSO controls) (SD units); higher = more sensor activation (inhibition of ppGalNAc-T2 glycosylation). The note with it: HEK293 sensor cells; 10 µM; 6 h. Here is the method:
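Cells were treated with compound at 10 uM for 6 h, then MG/GFP ratio was read by flow cytometry (10,000 cells per well, duplicate wells). Q = (R - R_neg)/SD_neg relative to DMSO vehicle controls; the signal rises when the glycosyltransferase is inhibited.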
As for `O=C(CC(O)(c1ccccc1)C(F)(F)C(F)F)c1cccs1` (stereo not given), the “T2 sensor activation Q score” value was determined as 0.185.

For the molecule `O=C(NC1CCCCCCC1)c1ccc(Br)o1`, the “T2 sensor activation Q score” value was -0.61.

As for `Cc1ccccc1OCC(=O)Nc1ccc(F)cc1`, the “T2 sensor activation Q score” value was -0.4.

For `COc1ccc(CC(=O)N2CCOCC2)cc1`, the “T2 sensor activation Q score” value came to 0.975.

Regarding `CC(=O)C1=C(O)C(=O)N(c2cccc(C)c2)C1c1ccccc1` (stereo not given), the “T2 sensor activation Q score” value is 0.01.

For `O=S(=O)(Nc1cccc(F)c1)c1ccc(-c2ccccc2)cc1`, the “T2 sensor activation Q score” value turned out to be 0.565.

In the case of `Cc1cccc(C(=O)Nc2ccc(C(C)C)cc2)c1`, the “T2 sensor activation Q score” value came to 0.205.

As for `Cc1c(Cl)cccc1NC(=O)c1ccco1`, the “T2 sensor activation Q score” value was -0.4.

Consider `COc1ccc(N2C(=O)C(O)=C(C(C)=O)C2c2ccc(OC)c(OC)c2)cc1` (stereo not given), for which the “T2 sensor activation Q score” value is -0.51.

On to `O=C(COc1ccccc1)N1c2ccccc2Sc2ccccc21`, for which the “T2 sensor activation Q score” value is -0.62.

`O=C(c1ccccc1F)n1nnc2ccccc21`: the “T2 sensor activation Q score” value is 1.45.

`CCc1ccccc1NC(=O)C(C)N1C(=O)c2ccccc2C1=O` (stereo not given): the “T2 sensor activation Q score” value was -0.48.

Consider `C=CCSc1nc(O)cc(=O)n1C`, for which the “T2 sensor activation Q score” value was found to be 1.72.

In the case of `Cc1ccc(S(=O)(=O)Nc2ccc(Cl)c(Cl)c2)cc1`, the “T2 sensor activation Q score” value came out at 0.69.

With `O=C(NCCCO)c1ccc(Cl)cc1`, the “T2 sensor activation Q score” value was found to be 0.295.

Regarding `O=S(=O)(c1ccc(Cl)cc1)N1CCOCC1`, the “T2 sensor activation Q score” value was -0.58.

As to `CC12CC3(C)CC(C(=O)O)(C1)CC(C(=O)O)(C2)C3`, the “T2 sensor activation Q score” value worked out at 1.14.

With `Cc1ccc(C)c(NS(C)(=O)=O)c1`, the “T2 sensor activation Q score” value is -0.275.

Take `CC(C)CC1CC2C(O1)c1ccccc1OC2(C)C` (stereo not given): the “T2 sensor activation Q score” value came to 0.005.

As for `OC(COC1C2CC3CC(C2)CC1C3)CN1CCCCC1` (stereo not given), the “T2 sensor activation Q score” value is -0.715.

For `O=[N+]([O-])c1ccccc1CN1CCCCCCC1`, the “T2 sensor activation Q score” value was -0.43.

In the case of `Nc1ccc(C(=O)c2ccccc2)cc1[N+](=O)[O-]`, the “T2 sensor activation Q score” value was -0.285.

Regarding `CCN1CCN(C2CC(=O)N(c3ccc(OC)cc3)C2=O)CC1` (stereo not given), the “T2 sensor activation Q score” value was -0.255.

Consider `CC(=O)c1ccc(NC(=O)C23CC4CC(CC(C4)C2)C3)cc1`, for which the “T2 sensor activation Q score” value was -2.1.

With `COc1cccc(OC)c1C(=O)Nc1cccc(Cl)c1`, the “T2 sensor activation Q score” value was determined as 0.215.

In the case of `CSc1cccc(NC(=O)C2CCN(C(=O)Cc3ccccc3)CC2)c1`, the “T2 sensor activation Q score” value is -0.49.

On to `Cn1ncc(Cl)c(Oc2ccc(Cl)cc2)c1=O`, for which the “T2 sensor activation Q score” value was 1.33.

In the case of `COc1ccccc1N1CCN(C(=O)c2ccc(F)cc2)CC1`, the “T2 sensor activation Q score” value is -0.89.

For `CCN(C(=O)c1ccc(-c2ccccc2)cc1)c1ccccc1`, the “T2 sensor activation Q score” value was determined as 1.42.

On to `O=C(O)C1CC=CC[C@@H]1Cc1ccccc1` (stereo not given in full), for which the “T2 sensor activation Q score” value is -0.51.

In the case of `Cc1ccc(NS(=O)(=O)c2ccc(Cl)cc2)c(C)c1`, the “T2 sensor activation Q score” value is -0.93.

Regarding `O=C(Nc1ccccc1)N1CCCC1`, the “T2 sensor activation Q score” value was -0.355.

For the molecule `CN(C)C1=C(Nc2ccc(F)c(F)c2)C(=O)c2ccccc2C1=O`, the “T2 sensor activation Q score” value is -0.265.

Consider `NC(=O)CSc1nc2ccccc2[nH]1`, for which the “T2 sensor activation Q score” value was -1.49.

Turning to `CN1CCN(C(=O)c2ccccc2[N+](=O)[O-])CC1`, the “T2 sensor activation Q score” value was -0.125.

Regarding `CC(=O)N1CCN(c2ccc([N+](=O)[O-])cc2F)CC1`, the “T2 sensor activation Q score” value came to 0.005.

`Cc1cccc(N2CCN(Cc3ccco3)CC2)c1C`: the “T2 sensor activation Q score” value is -0.235.

Regarding `OC(C#CCN1CCCCC1)c1ccccc1` (stereo not given), the “T2 sensor activation Q score” value was -0.96.

Take `O=C(CCCOc1ccc(Cl)cc1Cl)N1CCOCC1`: the “T2 sensor activation Q score” value was -0.57.

`O=C(O)CCCC(=O)Nc1ccc(Cl)cc1`: the “T2 sensor activation Q score” value is 1.29.
